{"source": "patent US8778939B2", "about": "“Compounds” (Glaxo Group Limited, priority 2009, dated 2014)", "note": "Some of these results come from one statement about several compounds together."}
{"biological_target": "T1, 6His-Tev-LRRK2 (1326-2527) (Homo sapiens, UniProt Q5S007)", "T1 construct": "A LRRK2 cDNA encoding residues 1326-2527 was received from Dundee University; made in house; host or cells: Spodoptera frugiperda (Sf9) insect cells, baculovirus", "T1 sequence (Q5S007 1326-2527)": "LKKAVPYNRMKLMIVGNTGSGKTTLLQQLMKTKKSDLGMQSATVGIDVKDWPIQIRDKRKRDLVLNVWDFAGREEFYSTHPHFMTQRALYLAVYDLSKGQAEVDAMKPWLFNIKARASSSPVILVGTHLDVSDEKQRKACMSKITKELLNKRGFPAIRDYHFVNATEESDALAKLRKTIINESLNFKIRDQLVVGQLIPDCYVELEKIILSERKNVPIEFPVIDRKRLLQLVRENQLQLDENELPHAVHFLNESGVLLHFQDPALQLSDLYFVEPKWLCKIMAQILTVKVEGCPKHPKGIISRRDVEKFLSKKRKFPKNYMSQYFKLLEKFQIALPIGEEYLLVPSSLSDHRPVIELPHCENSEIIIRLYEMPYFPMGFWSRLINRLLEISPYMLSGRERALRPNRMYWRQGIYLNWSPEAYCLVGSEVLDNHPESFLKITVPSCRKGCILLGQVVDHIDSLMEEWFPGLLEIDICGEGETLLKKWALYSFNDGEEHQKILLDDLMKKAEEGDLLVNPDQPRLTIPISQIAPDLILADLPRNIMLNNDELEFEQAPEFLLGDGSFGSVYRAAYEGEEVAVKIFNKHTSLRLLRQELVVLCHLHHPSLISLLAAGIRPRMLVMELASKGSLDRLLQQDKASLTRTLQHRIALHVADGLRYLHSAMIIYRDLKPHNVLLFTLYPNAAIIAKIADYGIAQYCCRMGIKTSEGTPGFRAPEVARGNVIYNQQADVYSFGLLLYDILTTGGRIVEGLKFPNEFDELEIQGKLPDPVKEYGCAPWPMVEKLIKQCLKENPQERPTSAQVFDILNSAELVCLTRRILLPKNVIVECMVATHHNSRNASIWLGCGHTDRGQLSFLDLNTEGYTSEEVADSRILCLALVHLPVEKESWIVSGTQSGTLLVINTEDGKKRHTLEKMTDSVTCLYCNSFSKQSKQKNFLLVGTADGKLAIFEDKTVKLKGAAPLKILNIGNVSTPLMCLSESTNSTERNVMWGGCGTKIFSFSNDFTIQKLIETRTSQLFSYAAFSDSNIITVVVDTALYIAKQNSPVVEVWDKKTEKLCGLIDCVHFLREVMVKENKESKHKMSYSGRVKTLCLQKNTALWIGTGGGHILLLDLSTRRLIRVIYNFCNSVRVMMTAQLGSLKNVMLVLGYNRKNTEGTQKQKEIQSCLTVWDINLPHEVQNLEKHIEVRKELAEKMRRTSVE", "assay": "LRRK2 peptide substrate assay", "format": "biochemical", "settings": "Biotin-LRRKtide peptide substrate, ATP at Km", "method": "Compounds of formula (I) may be tested for in vitro kinase activity in accordance with the following assays, using the non natural, in vitro, substrates moesin and the Longer Biotin-LRRKtide. Moesin and a shorter version of the peptide were identified as substrates in Jaleel et al, (2007, Biochem J, 405: 307-317).\nLRRK2 Peptide Substrate Assay\na) 100 nl of a 1:4 serial dilution of test compound with a top final assay concentration of 30 μM is added to certain wells in a low volume 384 well black plate. 100 nl of DMSO is used in certain wells as controls.\nb) 3 μl enzyme solution (80 nM purified recombinant 6His-Tev-LRRK2 (1326-2527) in assay buffer: 50 mM Hepes (pH 7.2), 10 mM MgCl2, 150 mM NaCl, 5% glycerol, 0.0025% triton X-100 and 1 mM DTT) is added to certain wells. […] Plates are then incubated for a further 1-2 hours at room temperature (incubation time varies depending upon rate and linearity of reaction with differing enzyme batches). d) 6 μl detection solution (50 nM Streptavidin SureLight® APC (PerkinElmer), 4 nM Eu-W1024 labelled anti-rabbit IgG antibody (PerkinElmer), 1:500 dilution (dilution determined on a batch to batch basis) of Phospho-Ezrin (Thr567)/Radixin (Thr564)/Moesin (Thr558) Polyclonal Antibody (New England Biolabs) and 60 mM EDTA in buffer: 40 mM Hepes (pH 7.2), 150 mM NaCl, 0.03% BSA) is added to each well. Plates are then incubated for a further 2 hours at room temperature before reading on a suitable plate reader (Excitation 330 nm, emission 620 nm (Eu) and 665 nm (APC)). Data is analysed using ActivityBase software (IDBS). LRRK2 AlphaScreen Protein Substrate Assay"}
{"smiles": "O=C(Nc1ccnnc1)c1cc(C(F)(F)F)ccc1OCc1ccc(F)cc1", "note": "[Example 132, 2-{[(4-Fluorophenyl)methyl]oxy}-N-4-pyridazinyl-5-(trifluoromethyl)benzamide]", "pIC50 in the LRRK2 peptide substrate assay": "≥ 5.6"}
{"smiles": "O=C(Nc1cccnc1)c1cc(CN2CCOCC2)ccc1OCc1ccc(F)cc1", "note": "[Example 117, 2-{[(4-Fluorophenyl)methyl]oxy}-5-(4-morpholinylmethyl)-N-3-pyridinylbenzamide]", "pIC50 in the LRRK2 peptide substrate assay": "≥ 5.6"}
{"smiles": "O=C(Nc1cccnc1)c1cc(S(=O)(=O)N2CCCCC2)ccc1OCc1ccccc1", "note": "[Example 42, 2-[(Phenylmethyl)oxy]-5-(1-piperidinylsulfonyl)-N-3-pyridinylbenzamide]", "pIC50 in the LRRK2 peptide substrate assay": "≥ 5.6"}
{"smiles": "O=C(Nc1ccnnc1)c1cc(-c2cn[nH]c2)ccc1OCc1ccc(F)c(F)c1", "note": "[Example 108, 2-{[(3,4-Difluorophenyl)methyl]oxy}-5-(1H-pyrazol-4-yl)-N-4-pyridazinylbenzamide]", "pIC50 in the LRRK2 peptide substrate assay": "≥ 5.6"}
{"smiles": "N#Cc1cccc(COc2ccc(Br)cc2C(=O)Nc2cccnc2)c1", "note": "[Example 15, 5-Bromo-2-{[(3-cyanophenyl)methyl]oxy}-N-3-pyridinylbenzamide]", "pIC50 in the LRRK2 peptide substrate assay": "≥ 5.6"}
{"smiles": "CC(O)c1ccc(OCc2ccccc2)c(C(=O)Nc2cccnc2)c1", "note": "(stereo not shown) [Example 75, 5-(1-Hydroxyethyl)-2-[(phenylmethyl)oxy]-N-3-pyridinylbenzamide]", "pIC50 in the LRRK2 peptide substrate assay": "≥ 5.6"}
{"smiles": "O=C(Nc1cccnc1)c1cc(S(=O)(=O)N2CCOCC2)ccc1OCc1ccccc1", "note": "[Example 41, 5-(4-Morpholinylsulfonyl)-2-[(phenylmethyl)oxy]-N-3-pyridinylbenzamide]", "pIC50 in the LRRK2 peptide substrate assay": "≥ 5.6"}
{"smiles": "O=C(Nc1cccnc1)c1cc(Br)ccc1OCc1ccccc1F", "note": "[Example 58, 5-Bromo-2-{[(2-fluorophenyl)methyl]oxy}-N-3-pyridinylbenzamide]", "pIC50 in the LRRK2 peptide substrate assay": "≥ 5.6"}
{"smiles": "NCCOCCOc1ccc(OCc2ccccc2)c(C(=O)Nc2cccnc2)c1", "note": "[Example 49, 5-({2-[(2-Aminoethyl)oxy]ethyl}oxy)-2-[(phenylmethyl)oxy]-N-3-pyridinylbenzamide]", "pIC50 in the LRRK2 peptide substrate assay": "≥ 5.6"}
{"smiles": "CN(C)Cc1ccc(OCc2ccccc2)c(C(=O)Nc2cccnc2)c1", "note": "[Example 71, 5-[(Dimethylamino)methyl]-2-[(phenylmethyl)oxy]-N-3-pyridinylbenzamide]", "pIC50 in the LRRK2 peptide substrate assay": "≥ 5.6"}
{"smiles": "O=C(Nc1ccnnc1)c1cc(-c2ccncc2)ccc1OCc1ccccc1", "note": "[Example 74, 2-[(Phenylmethyl)oxy]-N-4-pyridazinyl-5-(4-pyridinyl)benzamide]", "pIC50 in the LRRK2 peptide substrate assay": "≥ 5.6"}
{"smiles": "COc1ncccc1NC(=O)c1cc(-c2ccncc2)ccc1OCc1ccccc1", "note": "[Example 53, N-[2-(Methyloxy)-3-pyridinyl]-2-[(phenylmethyl)oxy]-5-(4-pyridinyl)benzamide]", "pIC50 in the LRRK2 peptide substrate assay": "≥ 5.6"}
{"smiles": "O=C(Nc1cccnc1)c1cc(C(=O)N2CCCCC2)ccc1OCc1ccccc1", "note": "[Example 36, 2-[(Phenylmethyl)oxy]-5-(1-piperidinylcarbonyl)-N-3-pyridinylbenzamide]", "pIC50 in the LRRK2 peptide substrate assay": "≥ 5.6"}
{"smiles": "Cc1nocc1NC(=O)c1cc(-c2ccncc2)ccc1OCc1ccccc1", "note": "[Example 61, N-(3-Methyl-4-isoxazolyl)-2-[(phenylmethyl)oxy]-5-(4-pyridinyl)benzamide]", "pIC50 in the LRRK2 peptide substrate assay": "≥ 5.6"}
{"smiles": "O=C(Nc1cccnc1)c1cc(-c2ccn[nH]2)ccc1OCc1ccc(F)c(F)c1", "note": "[Example 107, 2-{[(3,4-Difluorophenyl)methyl]oxy}-5-(1H-pyrazol-5-yl)-N-3-pyridinylbenzamide]", "pIC50 in the LRRK2 peptide substrate assay": "≥ 5.6"}
{"smiles": "N#Cc1ccccc1COc1ccc(Br)cc1C(=O)Nc1cccnc1", "note": "[Example 23, 5-Bromo-2-{[(2-cyanophenyl)methyl]oxy}-N-3-pyridinylbenzamide]", "pIC50 in the LRRK2 peptide substrate assay": "≥ 5.6"}
